# Data reported in PubChem BioAssay AID588590 (National Center for Advancing Translational Sciences (NCATS), 2011).
# By UniProt entry, the sequences of proteins in these tests, tags left out. Where a name states a change or a piece, a line headed by the entry shows the natural chain unless it says otherwise.
# UniProt Q9UNA4: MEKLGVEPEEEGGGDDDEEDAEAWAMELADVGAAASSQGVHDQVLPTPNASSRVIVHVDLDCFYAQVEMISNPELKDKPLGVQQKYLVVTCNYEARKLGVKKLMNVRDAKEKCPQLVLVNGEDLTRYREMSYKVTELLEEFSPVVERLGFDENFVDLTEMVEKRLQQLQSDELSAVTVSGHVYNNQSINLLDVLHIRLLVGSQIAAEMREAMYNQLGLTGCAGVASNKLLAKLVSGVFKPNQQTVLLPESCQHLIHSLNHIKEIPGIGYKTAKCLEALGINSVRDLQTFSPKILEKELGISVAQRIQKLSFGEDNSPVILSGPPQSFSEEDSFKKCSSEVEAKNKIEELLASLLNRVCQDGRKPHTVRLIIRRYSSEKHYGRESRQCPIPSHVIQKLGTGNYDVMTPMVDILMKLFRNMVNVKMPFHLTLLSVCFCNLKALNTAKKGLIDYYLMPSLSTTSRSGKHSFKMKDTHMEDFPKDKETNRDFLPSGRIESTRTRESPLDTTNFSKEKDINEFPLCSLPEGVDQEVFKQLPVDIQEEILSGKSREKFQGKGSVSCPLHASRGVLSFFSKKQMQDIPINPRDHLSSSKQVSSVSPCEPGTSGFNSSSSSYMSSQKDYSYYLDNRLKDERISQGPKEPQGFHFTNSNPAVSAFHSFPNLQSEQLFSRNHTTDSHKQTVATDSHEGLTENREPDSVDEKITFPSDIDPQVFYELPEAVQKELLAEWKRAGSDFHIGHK
# In all, about 390,000 compounds went through this assay and about 4,000 (1%) were called active. The shares of active, inactive and inconclusive entries below differ from those in the screen. Calls follow the shape of the dose curve; as a rule, active = well fitted inhibition curve with a large enough effect; inconclusive = small, poorly fitted or top-dose-only effect, or another doubt; inactive = no such curve, though single readings can be large or run the other way. A potency beside an inconclusive call is a rough fit, not a confirmed value.
# Target: DNA polymerase iota (Homo sapiens) (UniProt Q9UNA4)
# Assay: qHTS for Inhibitors of Polymerase Iota
# Conditions: Pol iota fluorescent replication assay, 10 min; series mostly up to 115 µM; activity, negative = inhibition: at the top concentration
# Method in brief: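 Pol iota at 10 nM preincubated 15 min with compounds at room temperature; reaction started with fluorescent substrate, 50 nM final. Fluorescence read kinetically at 0 and 10 min; buffer-only wells as negative control.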
# Potency is read from the fitted curve at half-maximal effect.
SMILES,Potency,"activity, negative = inhibition"
Cc1cc(C(=O)COc2ccc(Br)cc2F)c(C)n1C1CC1,"inconclusive: 39.8 µM [inhibitor, partial curve, poor fit]",–
CCCCCOc1ccccc1C(=O)NCCCC(=O)O,"inconclusive: 7.94 µM [inhibitor, full curve]",–
Cc1c(C(=O)Nc2ccc(-c3nc4cc(Cl)ccc4o3)cc2)oc2ccccc12,"inconclusive: 89.1 µM [inhibitor, partial curve, poor fit]",–
CC(=O)c1ccc(OCc2cn(CC(=O)c3ccc(O)cc3)nn2)cc1,"inconclusive: 12.6 µM [inhibitor, partial curve, poor fit]",–
CCCCOc1ccc(C(O)C(CN2CCOCC2)c2ccccc2)cc1 (stereo not drawn),"inconclusive: 0.708 µM [inhibitor, full curve, poor fit]",–
Cc1cc[n+](CC(=O)c2ccc(F)cc2)cc1,"inconclusive: 89.1 µM [inhibitor, single point]",–
CCOc1cc(/C=N/Nc2nnc(C)n2N)ccc1OC(C)=O,active: 2.82 µM,–
Cc1cccc(N2CCN(C(=O)Cn3ncc4c3-c3ccccc3OC4)CC2)c1C,–,inactive: 12.9%
COc1ccc(NC(=O)C2CCC(CNS(=O)(=O)c3ccc4c(c3)C(C)(C)C(=O)N4C)CC2)cc1 (stereo not drawn),"inconclusive: 89.1 µM [inhibitor, single point]",–
O=C(O)c1ccc2c(c1)NC(=O)C(N1CCCC1)S2 (stereo not drawn),"inconclusive: 28.2 µM [inhibitor, partial curve]",–
CC(=O)c1ccc(NC(=O)c2nc(-c3ccccc3)n(-c3ccccc3Cl)n2)cc1,–,inactive: 2.53%
N#Cc1ccc(NC(=O)COC(=O)C2=COCCO2)cc1,"inconclusive: 0.282 µM [inhibitor, full curve, poor fit]",–
O=c1oc(-c2ccccc2)nc2sc3c(c12)CCC3,"inconclusive: 22.4 µM [inhibitor, partial curve, poor fit]",–
COc1ccc(NC(=O)Nc2c(O)ccc3ccccc23)cc1,"inconclusive: 12.6 µM [inhibitor, partial curve, poor fit]",–
O=c1[nH]c(Nc2ccccc2)cc2cc(Br)ccc12,"inconclusive: 35.5 µM [inhibitor, full curve, poor fit]",–
COCCN(C(=O)CSc1n[nH]c(-c2ccc(OC)cc2)n1)c1c(N)n(Cc2ccccc2)c(=O)[nH]c1=O,–,inactive: 17.5%
O=C(COc1ccccc1)Nc1ccc2nc(SCC(=O)N3CCc4ccccc43)sc2c1,–,inactive: 1.48%
C/C(=N\NC(=O)c1ccoc1C)c1cccnc1,"inconclusive: 100 µM [inhibitor, single point]",–
CC(=O)c1cccc(-n2c(=O)c3c4c(sc3n(CC(=O)c3ccc(Cl)cc3)c2=O)CN(C(C)=O)CC4)c1,"inconclusive: 70.8 µM [inhibitor, partial curve]",–
N=C1/C(=C/c2ccc(Br)o2)C(=O)N=C2SC(CC(=O)N3CCCC3)=NN12,active: 17.8 µM,–
CCCCCCn1cnc2c(c1=O)c1nc3ccccc3nc1n2/N=C/c1ccco1,"inconclusive: 14.1 µM [inhibitor, partial curve, poor fit]",–

# Ordered by heavy-atom count (smallest number first): some entries from above.
SMILES,Potency,"activity, negative = inhibition"
O=c1[nH]c(Nc2ccccc2)cc2cc(Br)ccc12,"inconclusive: 35.5 µM [inhibitor, full curve, poor fit]",–
O=C(COc1ccccc1)Nc1ccc2nc(SCC(=O)N3CCc4ccccc43)sc2c1,–,inactive: 1.48%
COCCN(C(=O)CSc1n[nH]c(-c2ccc(OC)cc2)n1)c1c(N)n(Cc2ccccc2)c(=O)[nH]c1=O,–,inactive: 17.5%

# Later entries

SMILES,Potency,"activity, negative = inhibition"
Cc1ccc(CCNC(=O)C2CC(=O)N(CCc3ccccc3)C2)cc1 (stereo not drawn),"inconclusive: 89.1 µM [inhibitor, single point]",–
O=c1[nH]c(C2CCCN(S(=O)(=O)c3ccccc3Cl)C2)nc2c1nnn2Cc1ccc(OC(F)(F)F)cc1 (stereo not drawn),"inconclusive: 79.4 µM [inhibitor, single point]",–
CCOC(=O)CC(NS(=O)(=O)c1ccc2[nH]c(=O)sc2c1)c1ccc(C)cc1 (stereo not drawn),"inconclusive: 44.7 µM [inhibitor, partial curve]",–
C=CCc1ccccc1OCC(O)CN1CCN(c2ccc(OC)cc2)CC1 (stereo not drawn),"inconclusive: 6.31 µM [inhibitor, full curve, poor fit]",–
CCOC(=O)c1ccc(OCC2c3cc(OC)c(OC)cc3CCN2C(=O)Cc2ccc(OC)c(OC)c2)cc1 (stereo not drawn),–,inactive: 31.6%
O=C1CCCN1c1ccc(S(=O)(=O)NCCOc2ccccc2)cc1,"inconclusive: 0.631 µM [inhibitor, full curve, poor fit]",–
COc1ccc(OC)c(C(=O)N(C[C@H]2CC[C@@H]([C@@H]3CC[C@H](CO)O3)O2)C(C(=O)NC(C)(C)C)c2ccc(-c3ccccc3)cc2)c1 (stereo partly drawn),–,inactive: 4.1%
CC1=C(c2ccc(Cl)cc2)S(=O)(=O)N=C1N1CCN(c2cccc(C)c2)C(C)C1 (stereo not drawn),"inconclusive: 89.1 µM [inhibitor, partial curve]",–
COC(=O)CNC(c1ccccc1)c1cc(Br)ccc1NC(=O)c1cc(OC)c(OC)c(OC)c1 (stereo not drawn),–,inactive: 11.8%
Cc1ccccc1C(=O)NC(=S)N(Cc1ccccc1)c1ccccn1,"inconclusive: 15.8 µM [inhibitor, single point]",–
Cc1cc(C)c2cc3c(N)c(C(=O)Nc4c(C)[nH]c(=O)[nH]c4=O)sc3nc2c1,"inconclusive: 39.8 µM [inhibitor, single point]",–
COCCN(CCOC)C(=O)C12CCC(C)(C(=O)C1)C2(C)C (stereo not drawn),"inconclusive: 22.4 µM [inhibitor, single point]",–
Cc1ccc(-n2c(SCc3nc(-c4ccccc4C)no3)nnc2-c2ccncc2)cc1C,–,inactive: 12.2%
O=C(CN1C(=O)c2ccccc2S1(=O)=O)NCCSCc1ccccc1Cl,–,inactive: -0.0296%
N#C/C(=C\c1ccc(O)c(O)c1)C(=O)N1CCCC1,"inconclusive: 70.8 µM [inhibitor, partial curve]",–
S=c1[nH]nc(-c2ccccc2Cl)n1/N=C/C=C/c1ccco1,"inconclusive: 20 µM [inhibitor, full curve, poor fit]",–
CC(C)C[C@@H](CN)NC(=O)c1nc[nH]c1C(=O)N[C@@H](C)C(=O)CNC[C@H](C)NC(=O)c1nc[nH]c1C(=O)N[C@@H](CC(C)C)C(=O)O,"inconclusive: 11.2 µM [inhibitor, full curve, poor fit]",–
CCN1CCN(CC(O)COC(c2ccccc2)c2ccccc2C)CC1 (stereo not drawn),"inconclusive: 50.1 µM [inhibitor, partial curve, poor fit]",–
CC(C)C(=O)c1cn(CC(=O)O)c2ccccc12,"inconclusive: 100 µM [inhibitor, single point]",–
COc1ccc(CCNC(=O)Cn2c(C)c3cnn(-c4ccccc4)c(=O)c3c2C)cc1OC,–,inactive: 41.7%
C#CCOc1c(/C=C\c2nc(O)c([N+](=O)[O-])c(=O)[nH]2)cc(Br)cc1OC,"inconclusive: 25.1 µM [inhibitor, partial curve]",–

SMILES,Potency,"activity, negative = inhibition"
COc1ccc(CCN(C)C2CCCN(C(=O)Cn3cccn3)C2)cc1OC (stereo not drawn),"inconclusive: 44.7 µM [inhibitor, partial curve, poor fit]",–
O=C1c2ccccc2C(=O)N1c1nc(-c2ccc(Cl)cc2)cs1,–,inactive: -10.2%
CCC(C)c1ccc(OCC(=O)Nc2cccc(C(=O)Nc3ccc(C(=O)O)cc3)c2)cc1 (stereo not drawn),"inconclusive: 79.4 µM [inhibitor, single point]",–
COCCN(C(=S)Nc1cccc(C)c1C)C(C)c1ccco1 (stereo not drawn),"inconclusive: 100 µM [inhibitor, single point]",–
Cc1cc(N)n(-c2ccc(Oc3ccccc3)c(S(=O)(=O)O)c2)n1,"inconclusive: 50.1 µM [inhibitor, partial curve, poor fit]",–
Fc1ccc(-n2ncc3c(Nc4ccc(Oc5ccc(Cl)cc5)cc4)ncnc32)cc1,"inconclusive: 89.1 µM [inhibitor, single point]",–
CN(Cc1ccco1)c1ncnc2ccc(-c3ccc4c(ccn4C)c3)cc12,"inconclusive: 8.91 µM [inhibitor, full curve, poor fit]",–
CC(=O)Nc1c(O)nc(SCC(=O)Nc2ccc(C(C)=O)cc2)[nH]c1=O,"inconclusive: 89.1 µM [inhibitor, partial curve, poor fit]",–
CN1CCN(c2cc(C(F)(F)F)nc(-c3ccccn3)n2)CC1,"inconclusive: 39.8 µM [inhibitor, single point]",–
COc1ccc(-c2[nH]c(-c3ccc(F)cc3)nc2SCC(=O)Nc2ccc(OC)c(OC)c2)cc1,–,inactive: -7.9%
c1ccc(-c2ccccc2OCCOCCN2CCNCC2)cc1,"inconclusive: 89.1 µM [inhibitor, single point]",–
COc1cccc(C(=O)Nc2ccc3c(c2)CCCN3C(=O)c2cccs2)c1OC,"inconclusive: 89.1 µM [inhibitor, partial curve, poor fit]",–
CCN1/C(=C/c2cc[n+](CCCS(=O)(=O)[O-])c3ccccc23)Sc2ccccc21,"inconclusive: 56.2 µM [inhibitor, partial curve, poor fit]",–
COCCn1c(SC(C)C(=O)NCC2CCCO2)nc2scc(-c3ccc(F)cc3)c2c1=O (stereo not drawn),–,inactive: 23.4%
O=C(Nc1nc(-c2ccccc2)cs1)c1ccc(=O)[nH]c1,–,inactive: 147%
Cc1cc2oc(C(=O)N(Cc3ccccc3)C3CCS(=O)(=O)C3)cc(=O)c2cc1C (stereo not drawn),–,inactive: 5.97%
CCc1ccc(NC(=O)CSc2nnc(-c3nonc3NC(C)=O)n2-c2ccccc2)cc1,–,inactive: 9.81%
FC(F)(F)c1cccc(N2CCN(C(=S)NC3CCCC3)CC2)c1,"inconclusive: 5.62 µM [inhibitor, full curve, poor fit]",–
CC(=O)c1c(C)oc2ccc(NS(=O)(=O)c3ccc(C(=O)O)cc3)cc12,"inconclusive: 11.2 µM [inhibitor, partial curve]",–
Cc1cc(=O)n(CC(C)O)c(O)c1C#N (stereo not drawn),"inconclusive: 31.6 µM [inhibitor, partial curve, poor fit]",–
Cc1ccc(S(=O)(=O)OCC(=O)Nc2ccc(C(=O)O)c(O)c2)cc1,active: 20 µM,–
